This is one part of the list. Shown are side measurements of this screen, not its main read-out; they come without a call. Compounds called inactive in the main read-out are mostly missing here. Words in brackets tell the shape of the fitted curve; partial curves, single points and poor fits give uncertain potencies.
Assay: qHTS Assay for Lipid Storage Modulators in Drosophila S3 Cells;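 as to cell number change: cells counted by Cell Tracker Red CMTPX staining in the red channel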
Conditions: BODIPY lipid droplet fluorescence, 18-24 h; for cell number change: measured here: cell count max response, cells fed with added oleic acid
Summary of the method: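 Drosophila S3 cells got compounds at several concentrations plus oleic acid (400 uM solution). Laser-scanning cytometry with 488 nm excitation read lipid droplets at 500-530 nm and cells at 575-640 nm. Percent activity was relative to 20 uM Triacsin C.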

[1] = measured here: lipid fluorescence (Fed channel) AC50, cells fed with added oleic acid
[2] = measured here: cell number channel AC50, cells fed with added oleic acid

Row | SMILES | cell number change | AC50 [1] | AC50 [2]
1 | Cc1ccc(S(=O)(=O)N2CCC(=O)N(C(COCc3cccc(C(F)(F)F)c3)Cc3ccccc3)CC2)cc1 (stereo unspecified) | 0.227% | – | –
2 | COc1ccc(N2CCN(c3nc(Cl)nc(Nc4ccc(F)cc4)n3)CC2)cc1 | – | 2.91 µM [rising, partial curve] | –
3 | CCc1cccc(C)c1NC(=O)COC(=O)c1cc([N+](=O)[O-])ccc1N1CCOCC1 | – | 1.64 µM [rising, partial curve] | 2.06 µM [rising, partial curve, poor fit]
4 | COc1ccc(NC(=O)Cn2nnc(C(=O)NCCc3ccc(OC)c(OC)c3)c2N)c(OC)c1 | 27% | 32.6 µM [rising, single point] | –
5 | CCn1nc(NS(=O)(=O)c2ccccc2)c2cc3ccc(C)cc3nc21 | -3.54% | 29.1 µM [rising, single point] | –
6 | C/C=C/Cn1c(SC)nc2c1c(=O)[nH]c(=O)n2C | 27.9% | – | 4.11 µM [rising, full curve, poor fit]
7 | N#CC(c1ccccc1)N(CCCCl)C(=O)c1ccc(Br)cc1 (stereo unspecified) | -11.9% | 7.31 µM [falling, partial curve] | –
8 | CCOC(=O)CCC(=O)N1CCNC(=O)C1 | -10.5% | 20.6 µM [falling, partial curve] | –
9 | O=C(CSc1nnc(CNC(=O)c2ccccc2)o1)NCc1ccccc1 | -30.2% | 0.651 µM [falling, full curve] | 9.2 µM [falling, partial curve]
10 | OCC[C@@H]1C[C@H](O)[C@@H](O)[C@]2(CCc3ccccc3CO2)O1 | 2.69% | 29.1 µM [rising, single point] | –
11 | COc1ccc(Cn2nnnc2C(c2cc3ccc(OC)cc3[nH]c2=O)N2CCCCCC2)cc1 (stereo unspecified) | -0.136% | 6.51 µM [rising, single point] | –
12 | COC(=O)Nc1csc2c1NC(=O)CCCC2 | 15.5% | – | –
13 | Cn1nccc1C(=O)NC1CCCc2c1cnn2-c1cc(F)cc(F)c1 (stereo unspecified) | 5.42% | – | –
14 | CCOC(=O)c1c(-c2ccccc2)csc1NC(=S)NC(=O)c1ccccc1 | 65.1% | – | 1.46 µM [rising, full curve]
15 | COc1ccc(C(=O)NCCc2c[nH]c3ccccc23)cc1[N+](=O)[O-] | -48.1% | – | 18.4 µM [falling, partial curve]
16 | CC(=O)Nc1c(C(=O)c2ccccc2)oc2ccccc12 | -25.3% | – | –
17 | O=C(O)CCCC(=O)Nc1cccc2cccnc12 | -16.7% | – | 0.651 µM [falling, full curve, poor fit]
18 | COc1cccc(NC(=O)Cn2c(CCC(=O)O)ccc2-c2cccs2)c1 | -7.2% | – | 2.91 µM [falling, single point]
19 | CS(=O)(=O)N1CCN=C1SCc1ccc(Br)cc1 | -10.4% | – | –
20 | Cc1nnsc1-c1onc(C)c1C(=O)O/N=C/c1ccc(Cl)cc1 | 5.3% | 5.17 µM [falling, single point] | –
21 | O=C(CN1C(=O)c2ccccc2C1=O)NN1C(=O)c2ccccc2C1=O | 16.1% | 9.2 µM [rising, single point] | –

Row | SMILES | cell number change | AC50 [1] | AC50 [2]
22 | CCCSc1nc(N2CCCC2)c2c(c1C#N)CC(C)(C)OC2 | 14.3% | 20.6 µM [rising, partial curve] | –
23 | CC(C)(C)OC(=O)[C@H](Cc1ccccc1)NC(=O)c1nc[nH]c1C(=O)N1CCN(c2ccccc2)CC1 | 6.89% | 29.1 µM [falling, single point] | –
24 | COc1ccc(-n2nc3ccccc3n2)cc1 | 0.377% | – | –
25 | O=C(NCC(c1cccs1)N1CCOCC1)C1CCN(S(=O)(=O)c2c(Cl)cccc2Cl)CC1 (stereo unspecified) | 29.1% | 23.1 µM [rising, single point] | –
26 | O=C(NCc1ccccn1)Nc1ccc(Cl)cc1Cl | -1.62% | 0.562 µM [rising, full curve, poor fit] | –
27 | CCCCN(C(=O)CSCC(=O)Nc1cccc(C)c1)c1c(N)n(CCCC)c(=O)[nH]c1=O | 76.5% | – | 16.4 µM [rising, partial curve]
28 | CC(=O)Nc1nc2ccccc2[nH]1 | -15.2% | – | 2.59 µM [falling, single point]
29 | C=CCOC(=O)CCCCCCCC | -18.5% | – | –
30 | CC(C)COC(=O)N1CC(O)CC1C(=O)O (stereo unspecified) | 8.49% | – | –
31 | O=C1NCCN1CCN1C(=O)c2ccccc2NC1c1ccccc1 (stereo unspecified) | 21.3% | 0.731 µM [rising, full curve, poor fit] | –
32 | Cc1cc2cc(C)c(NCCNC(=O)c3cccs3)nc2cc1C | -25.7% | 13 µM [falling, single point] | –
33 | Cc1cc(NC(=O)CSc2nc3cc(C)c(C)cc3cc2C)no1 | 14.9% | 29.1 µM [rising, single point] | –
34 | Cc1ccc(C(C(=O)NCc2ccc(F)cc2)N(CCCO)C(=O)C2COc3ccccc3O2)o1 (stereo unspecified) | -7.66% | 1.64 µM [rising, partial curve, poor fit] | –
35 | Cc1cccc(C)c1NC(=O)COC(=O)CNC(=O)C1CCCCC1 | 1.59% | – | –
36 | CC(C)CN(C(=O)Cn1c(C(F)(F)F)nc2ccccc21)C1CCS(=O)(=O)C1 (stereo unspecified) | -0.98% | 0.231 µM [falling, full curve, poor fit] | –
37 | CC(NC(=O)COC(=O)c1cc([N+](=O)[O-])ccc1N1CCOCC1)c1ccc(F)cc1 (stereo unspecified) | 97.3% | – | 9.2 µM [rising, partial curve]
38 | CC(=O)Nc1ccc(Nc2nc(C)nc3c2oc2ccccc23)cc1 | -17.3% | 4.11 µM [rising, single point] | –
39 | CC1CCN(CCc2nc3cc(NC(=O)COc4ccc(Cl)cc4)ccc3n2C)CC1 | 33% | 29.1 µM [rising, single point] | 1.84 µM [rising, full curve]
40 | COc1cc2c(c(OC)c1OC)CCc1cnoc1-2 | 17.7% | 0.13 µM [rising, full curve, poor fit] | 6.51 µM [rising, single point]
41 | CCCCCCCCOC(=O)c1nc(Cl)c(Cl)c(N)c1Cl | -44.5% | 29.1 µM [falling, single point] | 32.6 µM [falling, single point]

Record cards (already shown). Order of values: cell number change | AC50 [1] | AC50 [2]
Cc1cc(NC(=O)CSc2nc3cc(C)c(C)cc3cc2C)no1 as listed: 14.9% | 29.1 µM [rising, single point] | –
CC(=O)Nc1ccc(Nc2nc(C)nc3c2oc2ccccc23)cc1 as listed: -17.3% | 4.11 µM [rising, single point] | –
